# Reference: patent US20240216369A1, “THE USE OF A SPLICING MODULATOR FOR A TREATMENT SLOWING PROGRESSION OF HUNTINGTON'S DISEASE” (Novartis AG, priority 2019, published 2024)
# Tested on: mutant HTT protein
# Assay: Mouse population PK/PD turnover model based on BacHD mouse
# Format: in vivo
# Excerpt: For the development of the PK/PD relationship, the concentration of mutant HTT protein in the brain of BacHD mice and its changes after branaplam administration were used as PD biomarker (Example 1a). To increase the data base, all concentrations of the mutant HTT protein were pooled. The correlation between branaplam concentrations in plasma and the mutant HTT protein concentrations in the brain were investigated by means of a turnover model (described below) considering the inhibition of the production of mutant HTT protein in the brain. Since mutant HTT protein was determined in brain cortex and brain striatum, the PK/PD correlations were executed for both brain parts separately. […] For the execution of the population PK/PD model, the PK parameters (presented in Table 6) from the previously described population PK model were fixed and the PD parameters were calculated. The Monolix software (Version 2018R1, Lixoft) and its turnover model described in the library (pkpd/oral1_2cpt_SigmoidindirectModelinhibitionKin_TlagkaCIV1QV2R0koutimaxIC50gamma) was used to determine the PD parameters in the mouse. The PD part of the model can be described by the following equation: […]
# It has to be noted, that the maximum inhibitory effect was set to 1 and the mutant HTT protein baseline, R0, was set to 1 since only relative changes to the baseline were determined in the BacHD mouse (Example 1a).
smiles,measurement,setting,value
"CC1(C)CC(Oc2ccc(-c3ccc(-c4cn[nH]c4)cc3O)nn2)CC(C)(C)N1 [Compound 18, 5-(1H-pyrazol-4-yl)-2-(6-((2,2,6,6-tetramethylpiperidin-4-yl)oxy)pyridazin-3-yl)phenol]",kout (degradation rate of mutant HTT protein),popPD parameters (cortex),0.00634 h⁻¹
same,kout (degradation rate of mutant HTT protein),popPD parameters (striatum),0.00341 h⁻¹
